PubChem BioAssay AID1259308 | NCATS – 2017
Shown is one part, drawn at random, of about 59,000 deposited reagents. Over the whole deposit, about 1,510 (2.6%) are marked active. 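Calls use total luciferase alone and ignore viability, so some active siRNAs may act by altering cell number.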 The numbers tell different reagents against one gene apart. Further read-outs or replicates are left out here.

Test: 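Knock-downs that increase output of a recombinant reporter protein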 (primary screen)
Cell system: human HEK293 embryonic kidney cells stably expressing firefly luciferase (HEK-CMV-Luc2-Hygro)
Reagents: single siRNA against human genes, 0.8 pmol siRNA per well
Time to read-out: 72 h
Measured: 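Luciferase light (ONE-Glo) measured on one replicate plate set and viability (CellTiter-Glo) on the other, scaled to a negative control siRNA, with robust z-scores and luciferase per cell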
Direction: total luciferase, z-score and total luciferase, % of control: higher = more reporter protein produced
Hit rule: 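Active when the median/MAD z-score for overall luciferase is greater than 3; a gene was taken forward for validation with new siRNAs if at least two of its three siRNAs passed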
Meaning of the calls: active = raised luciferase; inactive = no rise

Knock-down of SHMT1 #1 resulted in: total luciferase, z-score -0.565; total luciferase, % of control 70.6; inactive.
After knock-down of SHMT1 #2 the results were total luciferase, z-score 1.36; total luciferase, % of control 109; inactive.
Against SHMT1 #3, the values are total luciferase, z-score -0.382; total luciferase, % of control 74.3; inactive.
ANG #1 scored total luciferase, z-score -1.26; total luciferase, % of control 56.7; inactive.
ANG #2 gave total luciferase, z-score -0.212; total luciferase, % of control 77.7; inactive.
With knock-down of ANG #3, the record shows total luciferase, z-score -0.95; total luciferase, % of control 63; inactive.

No new results follow: entries from further up.
ANG #2 → total luciferase, z-score = -0.212; total luciferase, % of control = 77.7; call = inactive
ANG #3 → total luciferase, z-score = -0.95; total luciferase, % of control = 63; call = inactive

The listing continues:
After knock-down of ODAD2 #1 the results were total luciferase, z-score -0.522; total luciferase, % of control 71.5; inactive.
For ODAD2 #2, the entry reads total luciferase, z-score -0.475; total luciferase, % of control 72.4; inactive.
With knock-down of ODAD2 #3, the screen gave total luciferase, z-score -0.654; total luciferase, % of control 68.9; inactive.
With knock-down of NOXA1 #1, the screen gave total luciferase, z-score 0.177; total luciferase, % of control 85.4; inactive.
NOXA1 #2 gave total luciferase, z-score -0.725; total luciferase, % of control 67.5; inactive.
Knock-down of NOXA1 #3 gave: total luciferase, z-score 1.18; total luciferase, % of control 105; inactive.
